Results as given in paper PMC3708871.
No constants are given. Whether binding was seen depends on the method and setting.

Target: T1, Peptide of the cytoplasmic domain of human tetherin, residues 1–21, C9S, biotinylated (human)
T1 sequence (peptide, biotin (maleimide-PEG2-Biotin) at C20): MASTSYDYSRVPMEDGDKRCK
Assay: SPR; BIAcore 3000, 25°C, PBS with 5 mM DTT; biotinylated tetherin peptides captured (3,000 RU) on neutravidin-coated CM5 chip, Nef proteins flowed at 5 µl/min; equilibrium analysis, apparent Kd; both purified

Recombinant SIVmac239 Nef core domain, residues 96–237 (domain or fragment)
binding: no binding
